{"source": "paper PMC7376718", "about": "“Flavonoids isolated from the South African weed Chromolaena odorata (Asteraceae) have pharmacological activity against uropathogens” (BMC Complementary Medicine and Therapies, 2020)", "key": {"in vitro [1]": {"test": "in vitro", "experimental": "(§1) Different concentrations of the compounds ranging from 0.003 to 0.2 mg/mL were tested for cytotoxicity against three cell lines; Vero monkey kidney, C3A and Caco2. Vero cells were grown and maintained in MEM, supplemented with 0.1% gentamicin and 5% foetal calf serum, while Caco2 and C3A cells were grown and maintained in DMEM supplemented with 10% foetal calf serum, 1% non-essential amino acids and 1% penicillin-streptomycin. All cells were incubated in a 5% CO2 incubator at 37 °C. Doxorubicin chloride was used as positive control while 10% DMSO used in dissolving the test samples was used as the negative control. The 3-(4,5-dimethylthiazol)-2,5-diphenyl tetrazolium bromide (MTT) assay described by Mosmann with modification by McGaw et al. was used to determine the cytotoxicity of the test samples. The lethal concentration (LC50) value was calculated as the concentration of tested sample resulting in a 50% reduction of absorbance compared to untreated cells. Selectivity index (SI) values were calculated against the MIC using the formula: […]"}, "in vitro [2]": {"test": "in vitro", "experimental": "as §1", "remark": "listed apart in the source"}}, "note": "Where two headings read alike, the source gives them in different places.", "data": [{"smiles": "O=C(O)c1cn(C2CC2)c2cc(N3CCNCC3)c(F)cc2c1=O", "note": "[Ciprofloxacin, ciprofloxacin, reference compound]", "values": [{"measurement": "CC50", "setting": "in vitro [1]", "value": "> 200", "unit": "µg/mL"}, {"measurement": "CC50", "setting": "in vitro [2]", "value": "> 200", "unit": "µg/mL"}]}]}
